Assay results reported in publication PMC12011380.
No constants are given. Whether binding was seen depends on the method and setting. In cells and extracts the contact can be indirect. Some results given as binding are weak or reduced against the parent protein; the word gives no strength.

Protein sequences, listed by entry. Tags and fused reporters are not part of them.
UniProt Q9BXW9: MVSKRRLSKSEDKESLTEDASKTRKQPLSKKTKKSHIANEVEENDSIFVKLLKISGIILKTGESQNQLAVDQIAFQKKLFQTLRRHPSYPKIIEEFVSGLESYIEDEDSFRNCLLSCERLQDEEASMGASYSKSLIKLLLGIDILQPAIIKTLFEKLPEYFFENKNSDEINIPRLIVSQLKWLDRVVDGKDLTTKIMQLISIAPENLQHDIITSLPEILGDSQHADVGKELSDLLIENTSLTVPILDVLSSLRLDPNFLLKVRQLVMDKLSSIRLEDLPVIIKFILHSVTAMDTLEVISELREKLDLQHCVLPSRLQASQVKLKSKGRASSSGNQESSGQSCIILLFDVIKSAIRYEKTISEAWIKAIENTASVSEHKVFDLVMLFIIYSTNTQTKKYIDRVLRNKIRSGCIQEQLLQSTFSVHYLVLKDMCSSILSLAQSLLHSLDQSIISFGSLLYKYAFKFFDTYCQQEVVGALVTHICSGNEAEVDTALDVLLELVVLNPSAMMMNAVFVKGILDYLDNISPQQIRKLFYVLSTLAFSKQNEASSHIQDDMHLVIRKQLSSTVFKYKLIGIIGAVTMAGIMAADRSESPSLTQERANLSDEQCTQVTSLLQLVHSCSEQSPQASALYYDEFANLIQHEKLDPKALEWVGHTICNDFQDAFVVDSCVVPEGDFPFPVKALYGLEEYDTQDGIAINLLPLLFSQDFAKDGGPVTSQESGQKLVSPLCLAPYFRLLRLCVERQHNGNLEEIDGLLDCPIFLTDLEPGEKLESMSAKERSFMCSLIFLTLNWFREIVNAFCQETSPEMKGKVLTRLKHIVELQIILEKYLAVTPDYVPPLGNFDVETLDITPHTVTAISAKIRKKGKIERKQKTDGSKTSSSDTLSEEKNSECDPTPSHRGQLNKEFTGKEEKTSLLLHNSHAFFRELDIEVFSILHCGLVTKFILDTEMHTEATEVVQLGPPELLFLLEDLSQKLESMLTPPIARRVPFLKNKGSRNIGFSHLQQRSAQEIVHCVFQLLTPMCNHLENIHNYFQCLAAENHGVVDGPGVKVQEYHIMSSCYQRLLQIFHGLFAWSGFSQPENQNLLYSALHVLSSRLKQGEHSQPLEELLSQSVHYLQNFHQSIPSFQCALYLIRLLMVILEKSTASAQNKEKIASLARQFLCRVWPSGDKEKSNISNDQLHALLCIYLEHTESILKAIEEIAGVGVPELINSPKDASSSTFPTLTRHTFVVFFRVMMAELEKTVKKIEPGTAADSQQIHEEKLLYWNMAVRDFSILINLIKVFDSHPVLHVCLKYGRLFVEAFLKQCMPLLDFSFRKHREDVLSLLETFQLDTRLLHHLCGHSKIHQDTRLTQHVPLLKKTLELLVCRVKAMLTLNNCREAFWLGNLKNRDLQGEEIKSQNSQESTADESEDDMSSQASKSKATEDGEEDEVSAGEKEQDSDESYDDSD
UniProt P53350: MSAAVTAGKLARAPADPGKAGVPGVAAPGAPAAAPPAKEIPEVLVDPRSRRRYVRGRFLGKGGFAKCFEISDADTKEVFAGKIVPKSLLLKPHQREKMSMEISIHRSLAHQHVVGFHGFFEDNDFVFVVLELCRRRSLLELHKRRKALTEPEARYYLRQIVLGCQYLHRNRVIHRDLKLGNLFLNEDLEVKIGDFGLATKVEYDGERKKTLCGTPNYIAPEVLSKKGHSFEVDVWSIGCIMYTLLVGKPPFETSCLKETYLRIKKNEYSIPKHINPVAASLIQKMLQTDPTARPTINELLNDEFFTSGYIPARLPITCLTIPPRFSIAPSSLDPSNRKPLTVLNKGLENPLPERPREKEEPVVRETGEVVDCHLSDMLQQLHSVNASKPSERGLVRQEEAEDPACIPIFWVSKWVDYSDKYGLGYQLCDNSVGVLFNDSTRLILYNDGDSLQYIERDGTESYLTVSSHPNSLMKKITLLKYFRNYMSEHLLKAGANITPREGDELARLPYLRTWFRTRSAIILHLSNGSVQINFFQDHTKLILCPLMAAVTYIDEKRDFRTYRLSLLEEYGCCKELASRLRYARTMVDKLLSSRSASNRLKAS

Experiments:
[1] = target: T1, FANCA (human (endogenous in HeLa)) (UniProt O15360); experiment: proximity ligation; Duolink PLA with immunofluorescence in fixed mitotic HeLa cells stably expressing GFP-CENPA; signal at centromeres; FANCD2-PLK1 also after volasertib treatment
T1 sequence: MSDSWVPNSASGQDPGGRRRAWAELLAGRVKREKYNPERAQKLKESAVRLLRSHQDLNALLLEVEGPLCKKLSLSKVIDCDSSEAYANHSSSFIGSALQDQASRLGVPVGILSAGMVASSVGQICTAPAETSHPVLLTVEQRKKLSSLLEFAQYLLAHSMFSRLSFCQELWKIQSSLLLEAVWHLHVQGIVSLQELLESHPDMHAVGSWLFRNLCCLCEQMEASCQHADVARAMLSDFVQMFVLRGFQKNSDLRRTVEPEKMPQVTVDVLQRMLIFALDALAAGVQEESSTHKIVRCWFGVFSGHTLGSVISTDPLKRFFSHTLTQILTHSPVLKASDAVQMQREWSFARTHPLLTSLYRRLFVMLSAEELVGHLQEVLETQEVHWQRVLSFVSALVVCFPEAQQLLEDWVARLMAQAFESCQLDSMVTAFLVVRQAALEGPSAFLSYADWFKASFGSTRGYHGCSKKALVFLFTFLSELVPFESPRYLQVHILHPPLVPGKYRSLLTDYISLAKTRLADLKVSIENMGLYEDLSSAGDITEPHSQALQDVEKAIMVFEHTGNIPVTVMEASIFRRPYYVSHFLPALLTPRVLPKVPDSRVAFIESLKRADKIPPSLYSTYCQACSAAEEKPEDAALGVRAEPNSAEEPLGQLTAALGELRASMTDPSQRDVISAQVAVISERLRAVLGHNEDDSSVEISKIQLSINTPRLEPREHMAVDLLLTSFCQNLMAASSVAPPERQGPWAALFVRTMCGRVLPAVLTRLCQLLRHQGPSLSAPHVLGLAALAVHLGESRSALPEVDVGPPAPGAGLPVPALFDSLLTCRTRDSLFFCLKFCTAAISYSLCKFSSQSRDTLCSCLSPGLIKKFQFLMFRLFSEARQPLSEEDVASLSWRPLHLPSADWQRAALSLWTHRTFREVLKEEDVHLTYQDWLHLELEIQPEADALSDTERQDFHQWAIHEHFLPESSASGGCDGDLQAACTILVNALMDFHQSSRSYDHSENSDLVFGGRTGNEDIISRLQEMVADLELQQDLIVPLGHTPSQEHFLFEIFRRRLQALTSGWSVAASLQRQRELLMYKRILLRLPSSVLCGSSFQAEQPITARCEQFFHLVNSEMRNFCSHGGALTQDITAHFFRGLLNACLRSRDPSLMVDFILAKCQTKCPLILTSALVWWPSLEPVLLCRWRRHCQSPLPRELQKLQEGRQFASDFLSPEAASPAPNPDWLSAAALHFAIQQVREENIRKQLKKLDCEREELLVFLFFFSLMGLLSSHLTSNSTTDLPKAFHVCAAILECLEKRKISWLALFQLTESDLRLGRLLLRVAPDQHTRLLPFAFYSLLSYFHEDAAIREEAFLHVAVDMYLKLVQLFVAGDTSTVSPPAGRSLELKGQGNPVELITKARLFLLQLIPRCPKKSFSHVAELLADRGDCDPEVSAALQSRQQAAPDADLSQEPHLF

[2] = target: FANCD2 (human (endogenous in HeLa)) (UniProt Q9BXW9); experiment: as above
[3] = target: T1, FANCA (human (endogenous in HeLa)); experiment: co-IP; endogenous FANCA or FANCD2 immunoprecipitated from precleared HeLa lysates (antibody overnight at 4°C, protein A/G magnetic beads), Western blot for PLK1; FANCA-IP from cells unsynchronized, MMC-treated, or arrested with nocodazole or taxol; FANCD2-IP from nocodazole-arrested cells without or with volasertib (20 nmol/L)
[4] = target: FANCD2 (human (endogenous in HeLa)) (UniProt Q9BXW9); experiment: as above

- binding [1]: binds
- binding [2]: binds
- binding [3]: binds
- binding [4]: binds
Substance: polo-like kinase 1 (from UniProt P53350 1-603)
